Data as given in publication PMC3425481.
Results are given in words; binding and its absence hold for the method and conditions named. Binding seen in cells or lysates may run through a third protein. Some results given as binding are weak or reduced against the parent protein; the word gives no strength.

Sequences of proteins named here, by UniProt entry; tags and fusion partners are left off.
UniProt P84022: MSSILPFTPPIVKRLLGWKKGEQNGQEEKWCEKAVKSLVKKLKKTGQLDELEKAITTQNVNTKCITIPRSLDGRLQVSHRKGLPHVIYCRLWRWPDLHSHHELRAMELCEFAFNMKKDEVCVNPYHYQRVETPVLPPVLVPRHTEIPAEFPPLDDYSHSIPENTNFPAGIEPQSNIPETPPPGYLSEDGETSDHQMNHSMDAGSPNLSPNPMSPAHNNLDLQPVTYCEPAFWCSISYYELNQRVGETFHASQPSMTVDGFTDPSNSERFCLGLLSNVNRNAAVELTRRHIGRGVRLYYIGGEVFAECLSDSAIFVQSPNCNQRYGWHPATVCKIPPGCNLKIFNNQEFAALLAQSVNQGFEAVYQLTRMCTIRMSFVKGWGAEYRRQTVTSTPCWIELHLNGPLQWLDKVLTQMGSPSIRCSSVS

Biological target: Smad3 phosphorylated at the C-terminus (pSmad3C) (human (endogenous in ES-2)) (UniProt P84022)
Test: co-IP; immunoprecipitation with α-pSmad3C (overnight, 4°C) and protein A-sepharose from lysates of 10^8 ES-2 cells treated with TGF-β1 (1 h) or 2ME2 (16 h); 420 mM NaCl, 50 mM Hepes pH 7.8, 5 mM EDTA, 1% NP-40, 3% DTT; blots with α-Ski, α-Smurf2, α-tSmad2/3; control: sepharose beads alone

binding: binds
B1: Ski (protein, UniProt P12755 1-728)
chain: MEAAAGGRGCFQPHPGLQKTLEQFHLSSMSSLGGPAAFSARWAQEAYKKESAKEAGAAAVPAPVPAATEPPPVLHLPAIQPPPPVLPGPFFMPSDRSTERCETVLEGETISCFVVGGEKRLCLPQILNSVLRDFSLQQINAVCDELHIYCSRCTADQLEILKVMGILPFSAPSCGLITKTDAERLCNALLYGGAYPPPCKKELAASLALGLELSERSVRVYHECFGKCKGLLVPELYSSPSAACIQCLDCRLMYPPHKFVVHSHKALENRTCHWGFDSANWRAYILLSQDYTGKEEQARLGRCLDDVKEKFDYGNKYKRRVPRVSSEPPASIRPKTDDTSSQSPAPSEKDKPSSWLRTLAGSSNKSLGCVHPRQRLSAFRPWSPAVSASEKELSPHLPALIRDSFYSYKSFETAVAPNVALAPPAQQKVVSSPPCAAAVSRAPEPLATCTQPRKRKLTVDTPGAPETLAPVAAPEEDKDSEAEVEVESREEFTSSLSSLSSPSFTSSSSAKDLGSPGARALPSAVPDAAAPADAPSGLEAELEHLRQALEGGLDTKEAKEKFLHEVVKMRVKQEEKLSAALQAKRSLHQELEFLRVAKKEKLREATEAKRNLRKEIERLRAENEKKMKEANESRLRLKRELEQARQARVCDKGCEAGRLRAKYSAQIEDLQVKLQHAEADREQLRADLLREREAREHLEKVVKELQEQLWPRARPEAAGSEGAAELEP
